In article PMC7804203, “Targeting adaptor protein SLP76 of RAGE as a therapeutic approach for lethal sepsis” (Nature Communications, 2021):
Results are given in words; binding and its absence hold for the method and conditions named. Binding can be weak; no strength is given. Where a sequence is shown, tags or fusion partners need not be part of it. For some assays here: Binding seen in cells or lysates may run through a third protein. Each block holds one molecule with its values, some of them ahead of it.

Amino acid sequences for entries named in this document (tags omitted). A change or cut given only in a name is not applied to a line headed by its entry.
UniProt Q15109: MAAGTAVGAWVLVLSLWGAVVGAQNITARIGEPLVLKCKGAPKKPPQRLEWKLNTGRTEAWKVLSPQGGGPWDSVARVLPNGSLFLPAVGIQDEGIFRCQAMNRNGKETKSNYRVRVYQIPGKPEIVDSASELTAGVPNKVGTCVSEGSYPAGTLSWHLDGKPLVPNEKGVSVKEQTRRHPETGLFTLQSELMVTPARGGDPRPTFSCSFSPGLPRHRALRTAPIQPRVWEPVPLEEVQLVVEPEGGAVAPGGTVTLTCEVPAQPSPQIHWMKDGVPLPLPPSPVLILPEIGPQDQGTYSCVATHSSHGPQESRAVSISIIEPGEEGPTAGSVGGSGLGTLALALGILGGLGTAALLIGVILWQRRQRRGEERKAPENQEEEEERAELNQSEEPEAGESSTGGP

Experiments:
[1] = target: T1, His-tagged SLP76 (UniProt Q13094); assay: pull-down; His-SLP76 incubated with GST-RAGE(CT) or GST and pulled down with Ni2+-NTA beads; SDS-PAGE with Coomassie staining; both purified
T1 sequence: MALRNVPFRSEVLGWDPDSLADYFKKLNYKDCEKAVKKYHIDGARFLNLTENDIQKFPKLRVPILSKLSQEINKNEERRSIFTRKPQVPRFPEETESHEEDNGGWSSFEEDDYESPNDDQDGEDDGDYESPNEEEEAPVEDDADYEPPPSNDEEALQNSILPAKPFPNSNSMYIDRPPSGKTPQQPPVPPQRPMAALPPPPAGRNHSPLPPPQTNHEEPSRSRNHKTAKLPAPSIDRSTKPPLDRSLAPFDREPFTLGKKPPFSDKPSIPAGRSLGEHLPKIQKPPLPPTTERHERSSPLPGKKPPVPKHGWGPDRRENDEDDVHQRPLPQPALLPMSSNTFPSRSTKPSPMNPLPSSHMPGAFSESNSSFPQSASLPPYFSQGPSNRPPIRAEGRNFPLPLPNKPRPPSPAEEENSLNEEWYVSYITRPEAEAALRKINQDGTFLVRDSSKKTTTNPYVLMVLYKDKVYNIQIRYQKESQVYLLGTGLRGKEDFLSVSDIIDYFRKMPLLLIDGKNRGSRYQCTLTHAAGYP

[2] = target: HA-tagged RAGE mutant with D-domain-like docking site (D) deletion (UniProt Q15109); assay: co-IP; HEK293 cotransfected with HA-RAGE (or mutants) and Flag-SLP76 (or mutants); treated with AGEs at different doses and times (100 μg/ml, 15 min in the mapping) or untreated; 500 µg lysate with anti-HA affinity gel overnight at 4 °C; blot for Flag

- binding [1]: binds
Molecule: GST-tagged cytosolic tail of RAGE (domain or fragment)

- binding [2]: binds
B1: Flag-tagged full-length SLP76 (protein, UniProt Q13094 1-533)
chain: T1 sequence
